## Percent effect of library compounds

Protein sequences, listed by entry. Tags and fused reporters are not part of them. Residues count along the entry.
UniProt P9WFT3, whole entry: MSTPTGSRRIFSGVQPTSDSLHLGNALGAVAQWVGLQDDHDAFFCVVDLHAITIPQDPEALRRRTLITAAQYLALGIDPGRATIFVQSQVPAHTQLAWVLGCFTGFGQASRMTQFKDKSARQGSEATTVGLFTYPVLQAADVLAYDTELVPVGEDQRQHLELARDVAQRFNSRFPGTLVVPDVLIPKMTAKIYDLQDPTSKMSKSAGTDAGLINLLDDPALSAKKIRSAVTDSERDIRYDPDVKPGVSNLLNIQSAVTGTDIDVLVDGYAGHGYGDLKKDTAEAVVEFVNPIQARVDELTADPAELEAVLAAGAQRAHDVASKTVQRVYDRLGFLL
UniProt P9WPC5, whole entry: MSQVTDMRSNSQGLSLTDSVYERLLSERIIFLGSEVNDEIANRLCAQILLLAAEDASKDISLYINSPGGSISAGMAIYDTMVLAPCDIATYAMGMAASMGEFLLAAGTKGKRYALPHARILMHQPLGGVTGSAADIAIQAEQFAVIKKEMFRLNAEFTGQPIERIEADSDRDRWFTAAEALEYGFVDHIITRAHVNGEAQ
UniProt P9WPC3, whole entry partner: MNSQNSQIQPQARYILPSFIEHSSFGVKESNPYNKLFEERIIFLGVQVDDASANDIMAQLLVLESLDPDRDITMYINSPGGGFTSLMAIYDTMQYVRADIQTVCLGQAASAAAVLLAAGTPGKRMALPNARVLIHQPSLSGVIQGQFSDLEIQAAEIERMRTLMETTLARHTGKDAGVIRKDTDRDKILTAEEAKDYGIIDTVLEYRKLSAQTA
UniProt Q8IDJ8, 1-583: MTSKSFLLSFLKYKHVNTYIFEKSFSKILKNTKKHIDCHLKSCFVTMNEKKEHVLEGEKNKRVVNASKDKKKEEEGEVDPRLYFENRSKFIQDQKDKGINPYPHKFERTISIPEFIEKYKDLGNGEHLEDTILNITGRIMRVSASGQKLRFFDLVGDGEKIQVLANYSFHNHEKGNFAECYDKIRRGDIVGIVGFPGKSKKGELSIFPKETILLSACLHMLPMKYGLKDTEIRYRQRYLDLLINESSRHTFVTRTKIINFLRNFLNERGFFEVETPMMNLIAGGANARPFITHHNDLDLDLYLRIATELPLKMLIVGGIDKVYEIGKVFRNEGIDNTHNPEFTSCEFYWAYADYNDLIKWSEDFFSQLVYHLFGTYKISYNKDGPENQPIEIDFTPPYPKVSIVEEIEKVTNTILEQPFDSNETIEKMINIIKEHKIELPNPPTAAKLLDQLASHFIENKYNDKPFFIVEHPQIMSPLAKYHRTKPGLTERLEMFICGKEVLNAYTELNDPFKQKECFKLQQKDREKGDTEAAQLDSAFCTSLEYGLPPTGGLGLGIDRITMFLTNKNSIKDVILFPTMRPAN
UniProt P9WNZ1, whole entry: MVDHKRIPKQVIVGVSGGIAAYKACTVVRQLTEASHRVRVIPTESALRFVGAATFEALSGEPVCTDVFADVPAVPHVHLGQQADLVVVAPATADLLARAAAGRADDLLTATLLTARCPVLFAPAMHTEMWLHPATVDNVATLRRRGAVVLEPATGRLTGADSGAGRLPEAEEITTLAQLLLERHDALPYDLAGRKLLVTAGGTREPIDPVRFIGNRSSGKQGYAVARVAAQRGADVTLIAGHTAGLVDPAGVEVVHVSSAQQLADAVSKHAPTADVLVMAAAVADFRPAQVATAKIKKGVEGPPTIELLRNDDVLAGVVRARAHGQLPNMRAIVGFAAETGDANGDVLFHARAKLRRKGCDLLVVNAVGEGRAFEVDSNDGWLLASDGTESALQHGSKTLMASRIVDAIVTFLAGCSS

The values are deposited in ChEMBL (CHEMBL3988442, “University of Dundee, Small-Polar-MMV Screening Library” (2021)).

MtTrpRS: 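Enzyme assay of tryptophanyl-tRNA synthetase; the read-out is not stated. Target: Tryptophan-tRNA ligase, Mycobacterium tuberculosis (UniProt P9WFT3). Compounds at 10 µM. Higher most likely means stronger inhibition; the record gives no direction and few retests gave an IC50. Size under these conditions: about 65,000 compounds, about 64 of them at 50% or above in at least one test.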
ClpP1P2: 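ClpP1P2, Mycobacterium tuberculosis (UniProt P9WPC5 and UniProt P9WPC3). Protease assay of ClpP1P2, read by the AMC dye that it sets free. Tested at 50 µM. Higher reads as stronger inhibition, judged from the few compounds that gave an IC50. Most other retested compounds had strongly negative values. Size under these conditions: about 69,000 compounds, about 10 of them at 50% or above in at least one test.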
Leishmania in macrophages: 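Cell assay of Leishmania donovani living inside macrophages; the read-out is not stated. Tested at 30 µM. The record gives no direction; compounds that gave an IC50 in retests scored well above the rest, so higher reads as stronger inhibition. Size under these conditions: about 69,000 compounds, about 1,000 of them at 50% or above in at least one test.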
PfKRS1: 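Lysine-tRNA ligase, Plasmodium falciparum 3D7 (UniProt Q8IDJ8). Enzyme assay of the cytosolic lysyl-tRNA synthetase in 384-well plates, read by luminescence. Concentration: 30 µM. Higher reads as stronger inhibition, judged from the few compounds that gave an IC50. Size under these conditions: about 69,000 compounds, about 49 of them at 50% or above in at least one test.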
CoaBC: 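Coenzyme A biosynthesis protein CoaBC, Mycobacterium tuberculosis (UniProt P9WNZ1). Enzyme assay of CoaBC with a phosphate dye (Biomol Green) read at 650 nm. Concentration: 30 µM. Higher reads as stronger inhibition, judged from the few compounds that gave an IC50. Most strong results did not repeat in a second test. About 67,000 compounds were tested under these conditions; 0.06% (about 40) showed 50% or more at least once.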

Values are the deposited “Percent Effect”, in %.
The controls that fix the scale are not given in the record; negative values are as filed.
Compounds were drawn at random from those tested, without regard to their results.
Two or more numbers in one place are separate tests of the same structure; such repeats can differ widely.
A dash means the value is not listed here; it may have been measured.

| compound | MtTrpRS | ClpP1P2 | Leishmania in macrophages | PfKRS1 | CoaBC |
|---|---|---|---|---|---|
| `CC(=O)N1CCC(c2cc3c(ncn3C)c(-c3cnn(C)c3)n2)CC1` | -2.422 | -0.001174 | 33.44 | 3.658 | - |
| `Cc1nc(-c2cc(Cl)cc3c2OC(CN)C3)c[nH]1` (configuration not stated) | -3.361 | -0.2719 | 27.22 | 1.889 | 1.474 |
| `CCn1nccc1CNC(=O)C1CCCC1` | -2.071 | 1.563 | 2.427 | 4.574 | 1.818 |
| `N#Cc1cccc(OCCN2CCOC(Cn3cccn3)C2)c1` (configuration not stated) | -0.2946 | -20.69 | 23.36 | 1.627 | 3.52 |
| `Cc1csc(C(C#N)C(=O)NCc2ccccc2)n1` (configuration not stated) | -2.058 | 6.418 | 10.5 | 5.634 | 0 |
| `CC(C)(C)c1cc(C[C@H]2CNCC[C@H]2CC(=O)NCc2cccs2)no1` | -0.2788 | -7.552 | 5.83 | 2.908 | -21.61 |
| `Cc1cc(F)ccc1CN1CCC(O)(CN2CCCCC2)C1` (configuration not stated) | 1.599 | -6.466 | 37.89 | 3.471 | -36.61 |
| `COc1ccc(C(=O)COc2coc(CN3CCCCC3)cc2=O)cc1` | 2.931 | -9.292 | 9.704 & -12.08 | 10.35 | 4.557 |
| `Cc1ccc(OC2(C(=O)NC(C)Cc3ccncc3)CCNCC2)cc1` (configuration not stated) | -1.351 | -11.84 | 31.22 | 7.331 | 0.3699 |
| `Cc1ccc(S(=O)(=O)Cc2noc([C@@H]3C[C@@H](O)CN3)n2)cc1` | -1.732 | -18.88 | 0.444 | 8.329 | -4.289 |
| `COc1c(C2CCCN2C(=O)c2cc(Cl)c[nH]2)c(C)nn1C` (configuration not stated) | -3.94 | -4.143 | 29.7 | 5.792 | 2.692 |
| `Cc1cnc(CCNC(=O)C2CN(C(=O)Cc3ccc(F)cc3)C2)s1` | -5.943 | 29.81 | -20.15 | -2.333 | -8.41 |
| `CN1CC(c2ccccc2)CC2(CCN(Cc3ncc[nH]3)CC2)C1` (configuration not stated) | -1.069 | -12.56 | 16.63 | 7.853 | 2.331 |
| `CNC(=O)c1cn[nH]c1C1(C)CCCN(Cc2ccccc2OC)C1` (configuration not stated) | -2.493 | 21.4 | 22.38 & 21.89 | 0.8833 | 3.163 |
| `FC(F)(F)Oc1cccc(CNCc2ccc(-n3cncn3)nc2)c1` | -3.537 | 1.215 | 25.69 | 3.807 | 2.642 |
| `CN1CCc2c(C#N)c(NCc3ccco3)n3cnnc3c2C1` | -2.225 | -11.67 | 6.04 | 4.167 | -0.4049 |
| `Cc1c(NC(=O)NC2CCCC2)cccc1C(=O)N1CCSCC1` | -4.107 | -4.125 | 4.399 | 1.668 | 10.76 |
| `COCc1cn(C[C@H]2CC3CCN2C[C@@H]3C(=O)Nc2ccccc2)nn1` (some centres not stated) | -3.539 | -11.13 | -44.98 | 3.853 | 9.707 |
| `CCc1nc2ccccc2c(=O)n1CC1(O)CCN(CC(=O)OC)CC1` | - | 4.749 | -2.532 | 3.738 | 2.451 |
| `CS(=O)(=O)Cc1nc(CN2CCOc3ccccc3C2)cs1` | -4.004 | -7.901 | 10.91 | 0.05646 | 4.628 |
| `CCS(=O)(=O)N1CCc2c(cccc2NCc2ncc[nH]2)C1` | 4.901 | -0.8377 | 31.32 | -1.115 | -1.098 |
| `O=C(O)C(F)(F)F.[H][C@@]12CCNC[C@]1(C(=O)NCc1cnc(C)cn1)CCO2` | - | - | 19.84 | - | - |
| `Cc1c(NC(=O)c2noc3c2CCCC3)cnn1C` | - | 1.414 | 11.95 | 0.8672 | -4.294 |
| `Cn1cc(N2CCC3(CCN(Cc4nccs4)C3)C2=O)cn1` (configuration not stated) | -2.354 | -4.249 | - | 0.8732 | 8.74 |
| `Cc1cc(C(F)(F)F)nn1CC(C)C(=O)Nc1cccnc1` (configuration not stated) | 0.7772 | -5.885 | 5.284 | 1.327 | -5.312 |
| `c1ccc(-c2nc(CN3CCCCC3Cn3cncn3)co2)cc1` (configuration not stated) | -3.634 | -30.94 | 21.39 | 0 | 2.5 |
| `Cl.NC(=O)COc1ccc(CNCc2ccc(F)cc2F)cc1` | - | - | 26.78 | - | - |
| `Cc1cccc(NC(=O)NCCCn2nc3ccccn3c2=O)c1C` | -2.739 | 1.711 | 24.49 | 4.985 | 1.068 |
| `Cc1ccc(CC(=O)N2CCCC(c3cc(C(N)=O)[nH]n3)C2)cn1` (configuration not stated) | 0.4838 | -27.88 | 26.28 | -0.752 | 8.842 |
| `CN(C)C(=O)COC[C@@H]1CC[C@H]2[C@H](CCN2c2ccccn2)O1` | 8.226 | -12.79 | - | 1.497 | 6.274 |
| `CNC(=O)c1cn2cc(-c3ccccc3Cl)n(CC3CC3)c(=O)c2n1` | -2.576 | -11.8 | 0.8989 | -0.1044 | -8.442 |
| `Nc1nccnc1C1CN(C(=O)c2ccnnc2)CCO1` (configuration not stated) | 1.449 | 0.2351 | 22.53 & 13.8 | 1.237 | 3.406 |
| `CCC(CO)N(C/C(C)=C/c1ccco1)Cc1ccsc1` (configuration not stated) | 3.051 | -12.79 | 23.97 | 5.204 | 3.708 |
| `CC1(C)COCCN1C(=O)CCc1nc(-c2ccc(Cl)cc2)no1` | -0.6353 | 6.269 | 28.93 | 7.146 | 4.365 |
| `COCCCNc1ncnc2c1CCN(C(=O)CC1C=CCC1)CC2` (configuration not stated) | 0.9524 | -17.25 | -0.6215 | 3.066 | 2.893 |
| `O=C1CC(N(C(=O)c2ccc(F)c(F)c2)C2CC2)C(=O)N1` (configuration not stated) | -4.814 | -24.75 | 6.342 | 1.25 | 2.625 |
| `COc1ccc(CNCC(C)Oc2ccccn2)cc1Cl` (configuration not stated) | 1.611 | -1.127 | - | 2.643 | 0.5051 |
| `NC(=O)CC1CCCN(C(=O)NCC2(c3cccs3)CCCC2)C1` (configuration not stated) | -6.914 | -0.08652 | 21.39 | -0.3431 | -14.29 |
| `Cc1c(S(=O)(=O)N2CCCCC2c2nnc(-c3cccs3)o2)cnn1C` (configuration not stated) | -5.078 | 10.89 | 1.366 | 1.651 | 3.589 |
| `Cn1ccnc1CN1CCCN(C(=O)c2ccc3c(c2)OCO3)CC1` | -4.475 | -27.43 | 35.92 | 0.8441 | 2.682 |
| `O=C(O)CCc1cccc(C2CCCN2Cc2cccc(Cl)c2)n1` (configuration not stated) | - | 14.31 | 10.41 | 1.427 | 2.451 |
| `Cc1cnc(C)c(Oc2ccc(CN3CCCC3)cc2Cl)n1` | 0.3003 | 5.961 | -14.87 | -3.057 | 0.8631 |
| `O=C(O)C(F)(F)F.O=C(O)C(F)(F)F.O=C(O)C(F)(F)F.OCCN1CCC2(CC1)CC(NCc1ccccn1)c1ccccc1O2` (configuration not stated) | - | - | 24.69 | - | - |
| `c1cncc(CN2CC[C@H]3O[C@@H](COCC4CC4)CC[C@H]32)c1` | 0.1762 | 5.31 | - | -2.467 | 5.959 |
| `COC(=O)C1CCN(C(=O)c2ccc(N(C)S(C)(=O)=O)c(C)c2)CC1` | 4.094 | -7.593 | 4.132 | 7.502 | -0.8772 |
| `O=C(Nc1ccc2scnc2c1)N1CCN([C@H]2CCCC[C@@H]2O)CC1` | 1.713 | 0.4088 | 3.138 | 6.974 | 0.4963 |
| `[H][C@]12CCC[C@@]1(COC)CN(C(=O)COc1ccccc1OC)C2` | - | - | 17.22 | - | - |
| `CN(C)C[C@@H]1CCC[C@@H]2CN(c3ncccn3)C[C@@H]21` | -2.344 | -2.407 | - | 1.491 | 2.29 |
| `O=C(O)C(F)(F)F.[H][C@@]12CCN(S(=O)(=O)C3CC3)[C@@]1([H])CCN2Cc1ccc(C)s1` | - | - | 14.46 | - | - |
| `[H][C@@]12C[C@H](C(=O)Nc3ccccc3)[C@@]([H])(CN(S(=O)(=O)N(C)C)C1)O2` | - | - | 26.77 | - | - |
| `Cc1occc1C(=O)NCCOc1ccc(C(F)(F)F)cn1` | 8.622 | -14.81 | -11.29 | -2.85 | 13.03 |

Some entries from above, unchanged:

| compound | MtTrpRS | ClpP1P2 | Leishmania in macrophages | PfKRS1 | CoaBC |
|---|---|---|---|---|---|
| `Cc1c(S(=O)(=O)N2CCCCC2c2nnc(-c3cccs3)o2)cnn1C` (configuration not stated) | -5.078 | 10.89 | 1.366 | 1.651 | 3.589 |
| `Cl.NC(=O)COc1ccc(CNCc2ccc(F)cc2F)cc1` | - | - | 26.78 | - | - |
| `c1cncc(CN2CC[C@H]3O[C@@H](COCC4CC4)CC[C@H]32)c1` | 0.1762 | 5.31 | - | -2.467 | 5.959 |